Some of the results follow. Shown are side measurements of this screen, not its main read-out; they come without a call. The list favours compounds with an active or inconclusive main result. The note in brackets gives the kind of curve behind each potency; many fits are weak.
Experiment: qHTS Assay for Lipid Storage Modulators in Drosophila S3 Cells;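 on cell number change: cells counted by Cell Tracker Red CMTPX staining in the red channel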
Details: BODIPY lipid droplet fluorescence, 18-24 h; for cell number change: measured here: cell count max response, cells fed with added oleic acid
How it was run: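 Laser-scanning cytometry quantifies lipid droplet accumulation (500–530 nm total intensity; droplet/cell object ratio) in oleic acid-fed (400 uM added) Drosophila S3 cells treated with a concentration series. 20 uM Triacsin C defined 100% inhibition.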

[1] = measured here: lipid fluorescence (Fed channel) AC50, cells fed with added oleic acid
[2] = measured here: cell number channel AC50, cells fed with added oleic acid

Structure (SMILES)	cell number change [%]	AC50 [1]	AC50 [2]
O=C(NCC(F)(F)F)c1ccc(S(=O)(=O)N2CCN(C(=O)C3CCCO3)CC2)cc1 (stereo not drawn)	-0.251	0.731 µM [rising, full curve, poor fit]	–
CCN1CCN(C(=O)CCn2c(=O)c3cccn3c3cccnc32)CC1	2.65	3.26 µM [falling, partial curve]	–
C#CCn1c(=NC(=O)c2ccc(Cl)s2)sc2cccc(OC)c21	–	6.51 µM [rising, single point]	6.51 µM [rising, single point]
CCC(C(=O)NC1CCCC1)N(Cc1ccco1)C(=O)Cn1nnc(-c2ccc(C)cc2)n1 (stereo not drawn)	-132	23.1 µM [falling, single point]	–
C=CCNC(=O)COC(=O)COc1ccc(Cl)cc1C	0.966	–	–
COc1cccc(CNCc2cccnc2)c1OCc1ccccc1	2.39	–	0.164 µM [falling, full curve, poor fit]
Cc1ccccc1OCC(=O)OCC(=O)c1ccc(OCc2ccccc2)cc1	5.56	0.461 µM [falling, single point]	–
Cc1cccc(NC(=O)c2ccc(S(=O)(=O)N(C)C)cc2)n1	-4.42	6.51 µM [rising, single point]	–
CN(C)S(=O)(=O)c1ccc(NC(=O)CN2CCOCC2)cc1	-9.32	29.1 µM [falling, single point]	–
CCCNC(=O)CN1CCN(c2cc3ccccc3c(Cl)n2)CC1	-13.3	–	–
O=C(Nc1ccc(-n2nncc2-c2ccco2)cc1)c1cc2ccccc2oc1=O	176	–	–
CC1=NN(c2nc(C)cc(C)n2)C(=O)C1CCC(C)C (stereo not drawn)	103	–	29.1 µM [rising, single point]
CCn1c(/C=C/Nc2ccccc2)[n+](CC)c2cc(Cl)c(Cl)cc21	-9.95	–	6.51 µM [falling, single point]
O=C(/C=C/c1ccccc1)NCC(=O)N/N=C\c1cccnc1	-21.6	0.517 µM [rising, full curve, poor fit]	2.31 µM [rising, partial curve]
CCC1CCCCN1C(=O)c1nn2cccnc2c1Cl (stereo not drawn)	74.9	6.51 µM [falling, single point]	20.6 µM [rising, single point]
Cc1cccc(NC(=O)c2ccc(S(=O)(=O)C(F)F)cc2)c1C	11.2	2.91 µM [rising, partial curve, poor fit]	–
COc1ccc(C(=O)Nc2sc3c(c2C(=O)NCc2ccco2)CCCC3)cc1OC	6.74	4.61 µM [rising, full curve]	–
Cc1cccc(N(CC(=O)Nc2ccccc2F)S(C)(=O)=O)c1	–	5.8 µM [falling, single point]	–
Cc1cc(C)cc(NC(=O)CSc2nc(N)c(NC(=O)c3ccc(Br)o3)c(=O)[nH]2)c1	24.4	0.58 µM [rising, single point]	–
COc1ccc(NC(=O)CSc2c(C)nn(-c3nnc(C)c(=O)[nH]3)c2C)cc1	-98.7	32.6 µM [falling, partial curve]	32.6 µM [falling, partial curve]

Structure (SMILES)	cell number change [%]	AC50 [1]	AC50 [2]
O=C(Nc1ccc(Cl)cc1F)C1CCCN(C2=NS(=O)(=O)c3ccccc32)C1 (stereo not drawn)	–	18.4 µM [falling, single point]	–
COc1cc(/C=N/n2cnnc2)ccc1OC(=O)c1ccco1	-26.9	32.6 µM [falling, partial curve]	–
COc1ccc(Nc2nc3ccccc3s2)cc1	-17.1	0.116 µM [falling, full curve, poor fit]	–
CC(c1ccco1)N(C(=O)c1ccccc1F)c1ccccn1 (stereo not drawn)	-105	32.6 µM [falling, partial curve, poor fit]	29.1 µM [falling, single point]
CC1CCC(NC(=O)c2cccc(S(=O)(=O)N3CCN(c4ccccc4)CC3)c2)CC1 (stereo not drawn)	-10.4	–	2.59 µM [rising, single point]
COc1ccc(OCCC(=O)OCC(=O)NCc2ccc(F)cc2)cc1	-53.4	0.366 µM [falling, partial curve]	23.1 µM [falling, single point]
Cc1ccc(C(=O)NCC(c2ccco2)N2CCc3ccccc32)cc1 (stereo not drawn)	16.2	2.91 µM [rising, single point]	–
CN1CCc2nc(NC(=O)c3cccc(OC(F)F)c3)sc2C1	13.9	16.4 µM [falling, partial curve]	–
C=CCNC(=S)Nc1sc2c(c1C(=O)OCC)CC(C)(CC)OC2 (stereo not drawn)	-14	1.64 µM [falling, partial curve]	–
CCn1cc(C(=O)NC(C)C2CC3CCC2C3)cn1 (stereo not drawn)	-15.8	6.51 µM [rising, partial curve]	–
O=C1C2C3C=CC(C3)C2C(=O)N1c1cccc(N2C(=O)C3C4C=CC(C4)C3C2=O)n1 (stereo not drawn)	-231	18.4 µM [falling, partial curve]	29.1 µM [falling, partial curve]
O=C(Cc1ccc(F)cc1)N1CCC(CC2CC(c3cccc(Br)c3)=NO2)(C(=O)NCC2CCCCC2)CC1 (stereo not drawn)	31.1	29.1 µM [falling, single point]	5.8 µM [rising, full curve, poor fit]
CC(C)CC(COCc1cccc(C(F)(F)F)c1)N1CCN(C(=O)c2cccc(C(F)(F)F)c2)CCC1=O (stereo not drawn)	1.83	16.4 µM [falling, single point]	–
CC(NC(=O)C(=O)N/N=C/c1ccccc1)c1ccccc1 (stereo not drawn)	-26.7	20.6 µM [falling, partial curve]	–
CC(C)Nc1nc(-c2ccccc2)nc(-n2ccnc2)n1	-46.6	–	29.1 µM [falling, single point]
Cc1nc2ccccc2c2oc(C(=O)N3CCCC(C)C3)cc12 (stereo not drawn)	-18.2	–	–
Cc1cc(C)nc(NS(=O)(=O)c2ccc(NC(=O)CCCN3C(=O)c4ccccc4C3=O)cc2)n1	-12.2	–	–
CCCSC1=N/C(=C\c2ccc3c(c2)OCO3)C(=O)S1	18.7	–	–
Cc1ccc(CNC(=O)C2(S(=O)(=O)c3ccccc3)CC=CC2)cc1	11.7	–	–
Cc1ccccc1Cn1nc(C)c(NC(=O)C2(C)CC2(Cl)Cl)c1C (stereo not drawn)	-35	20.6 µM [falling, partial curve, poor fit]	25.9 µM [falling, partial curve, poor fit]

Part of the list above in order of number of heavy atoms, low to high:
Structure (SMILES)	cell number change [%]	AC50 [1]	AC50 [2]
CC(NC(=O)C(=O)N/N=C/c1ccccc1)c1ccccc1 (stereo not drawn)	-26.7	20.6 µM [falling, partial curve]	–
Cc1cccc(NC(=O)c2ccc(S(=O)(=O)C(F)F)cc2)c1C	11.2	2.91 µM [rising, partial curve, poor fit]	–
O=C(Nc1ccc(-n2nncc2-c2ccco2)cc1)c1cc2ccccc2oc1=O	176	–	–
Cc1cc(C)nc(NS(=O)(=O)c2ccc(NC(=O)CCCN3C(=O)c4ccccc4C3=O)cc2)n1	-12.2	–	–

The list continues:

Structure (SMILES)	cell number change [%]	AC50 [1]	AC50 [2]
Cc1cccc(N=C2NC(=O)/C(=C\c3cccs3)S2)c1	21.4	14.6 µM [rising, single point]	–
COc1ccccc1/C=C1\N=C(C(C)(C)C)OC1=O	20.3	–	–
Cc1cc(Cl)ccc1NC(=O)C1CCCN1C(=O)c1cccs1 (stereo not drawn)	-17.2	0.517 µM [falling, partial curve, poor fit]	–
O=C(Nc1cnn(Cc2ccc(Cl)cc2)c1)c1ccc([N+](=O)[O-])cc1	2.28	–	–
COc1ccc(NC(=S)NCCCCCC(=O)C[N+](=O)[O-])cc1	-37.1	0.731 µM [falling, full curve]	13 µM [falling, partial curve]
Cc1cc(C)n2nc(C(=O)NCc3cccc(C(F)(F)F)c3)nc2n1	32.7	29.1 µM [rising, single point]	29.1 µM [rising, single point]
Cc1ccc(NC(=O)CSc2nnc(C3CC3)n2C)cc1S(=O)(=O)N1CCCCC1	-4.15	6.51 µM [falling, single point]	–
COc1ccc(NC(=O)Cc2nnc(SCC(=O)NC3CCCC3)n2C)cc1	-7.89	–	–
CC(=O)N1c2ccc(S(=O)(=O)N3CCC(C(=O)N4CCN(c5ccccc5F)CC4)CC3)cc2CC1C (stereo not drawn)	-16.5	–	1.3 µM [rising, full curve, poor fit]
CCC(=O)Nc1cccc(-c2cn3ccsc3n2)c1	49.6	14.6 µM [rising, partial curve]	–
COc1cc(NC(=O)c2ccccc2)c(OC)cc1NC(=O)Cc1ccc(Br)cc1	110	29.1 µM [falling, single point]	20.6 µM [rising, partial curve]
O=C(COC(=O)CN1C(=O)NC2(CCCC2)C1=O)Nc1ccccc1C(F)(F)F	-12	–	0.517 µM [falling, single point]
CN(C)S(=O)(=O)n1cnc([C@@H]2[C@@H]3C(=O)OC[C@@H]3C[C@]23N=CN(Cc2ccccc2)C3=O)c1	10.7	0.517 µM [rising, full curve, poor fit]	–
CCn1c(C)nc2cc(C(=O)NNS(=O)(=O)c3ccc(C)cc3C)ccc21	21.6	6.51 µM [rising, partial curve]	–
O=C(COC(=O)CCc1nc2ccccc2s1)Nc1ncc(Cl)cc1Cl	13.3	14.6 µM [rising, single point]	–
O=C(NCCN1CCCC1)C1COc2ccccc2O1 (stereo not drawn)	-25.3	–	0.0651 µM [falling, full curve, poor fit]
N=c1c2c(-c3ccccc3)c(-c3ccccc3)n(Cc3ccccc3)c2ncn1CCCO	-28.7	–	–
Cc1nc2nc[nH]n2c(=O)c1NC(=O)CCc1ccccc1	-42.3	0.0517 µM [falling, full curve, poor fit]	20.6 µM [falling, partial curve, poor fit]
COc1ccc(C(CCNCc2ccccc2F)c2ccc(F)cc2)cc1 (stereo not drawn)	-32	7.31 µM [falling, partial curve, poor fit]	18.4 µM [falling, partial curve]
